Assay results from patent US20240058349A1, “PI3K INHIBITORS FOR PROTECTION AGAINST GLUCOCORTICOID-INDUCED ATROPHY” (Northwestern University, priority 2020, published 2024).
At least one compound was matched to its structure with a doubt left. Some entries repeat one wording, which the source may state once for all of them. Some results were stated once for a whole list of compounds, not compound by compound. Some ranges recur; such a range may be that of the whole group of compounds.

How the values were obtained:
Granta cells [1] = experiment: MTT cell viability / cytotoxicity assay in Granta cells; type: cell-based, human; conditions: for decrease of Granta survival: used alone for 6 days, LY294002 50 uM, AZD8055 1 uM, WM 10 uM, Dex 1 uM; for type of interaction with Dex (isobologram analysis), Granta cells: combination with Dex, IC50 after 24 h treatment
Experimental: (§1) Cell cultures. Acute lymphoblastic leukemia cell line CEM and mantle cell lymphoma cell line Granta were obtained from ATCC and cultured in RPMI-1640 (Thermo Fischer) with 10% FBS (HyClone), sodium piruvate (10 mM), HEPES (10 mM) and antibiotics (referred thereafter as complete medium; Thermo Fischer) (Ref 14; incorporated by reference in its entirety). Peripheral blood samples were collected from healthy volunteers. The ethical Committee of the Blokhin Cancer Research Center approved this study, written informed consents were provided. Mononuclear cell fraction was isolated by 1.077 g/ml Ficoll-Isopaque density-gradient centrifugation and cultured in the complete medium. Cells were pretreated with Rapa (0.1-5 uM), LY294002 (10-100 uM), WM (1-10 uM) and AZD8055 (0.1-2 uM) or vehicle for 6 h, then were treated for Dex (1-10 uM) or vehicle for 24-144 h as indicated.
(§2) Analysis of cell viability and apoptosis induction. Cell viability was assessed using the MTT assay as follows: cells were incubated at 37° C. for 3 h with 20 ul of MTT solution (5 mg/ml). Supernatant was discarded and 150 μL of 100% DMSO was added to each well. Optical density was measured at 495 nm using a microplate reader MultiScan MCC 340 (Labsystems). The IC50 values was calculated using Quest Graph IC50 Calculator free software. Isobolograms were constructed (Ref 15; incorporated by reference in its entirety). IC50 values of PI3K inhibitors or Dex as single agents were plotted as 1 on the x and y axes, respectively. Various concentrations of PI3K inhibitors and for Dex were combined. The IC50 values for each compound in the combination were calculated and plotted as a percentage of each single drug. The disposition of data points below, above or on the line of additivity indicates synergy, antagonism or additivity, correspondingly.
(§3) PI3K/Akt/mTOR inhibitors were developed as anti-cancer drugs. To assess whether and how PI3K/Akt/mTOR inhibitors interacted with Dex anti-lymphoma effects, experiments were conducted to evaluate the efficacy of the combined treatment in vitro using such readouts as cell viability (MTT test) and apoptosis (PARP cleavage and sub-G1-phase cell population determined by FACS).

CEM cells [2] = experiment: MTT cell viability / cytotoxicity assay in CEM cells; type: cell-based, human; conditions: for decrease of CEM survival: used alone for 6 days, LY294002 50 uM, AZD8055 1 uM, WM 10 uM, Dex 1 uM; for type of interaction with Dex (isobologram analysis), CEM cells: combination with Dex, IC50 after 24 h treatment
Experimental: as §1, §2, §3

CEM cells [3] = experiment: Apoptosis induction (PI staining sub-G1, PARP cleavage) in CEM cells; type: cell-based, human; conditions: used alone
Experimental: (§4) Apoptosis induction was evaluated using Western blot analysis of PARP cleavage and propidium iodine (PI) staining (Ref. 14; incorporated by reference in its entirety).
(§5) Cooperative anti-lymphoma effects of Dex and PI3K/Akt/mTOR inhibitors in vitro. PI3K/Akt/mTOR inhibitors were developed as anti-cancer drugs. To assess whether and how PI3K/Akt/mTOR inhibitors interacted with Dex anti-lymphoma effects, experiments were conducted to evaluate the efficacy of the combined treatment in vitro using such readouts as cell viability (MTT test) and apoptosis (PARP cleavage and sub-G1-phase cell population determined by FACS). The cytotoxic effect of Dex and PI3K inhibitors in wide concentration range (LY294002 1-500 uM, WM 0.1-25 uM, AZD8055 0.05-5 uM) was assessed (FIG. 8) and determined IC50 values after 24 h treatment (Table 8).
(§6) The effect of Dex combined with LY294002, AZD8055, WM or reference inhibitor Rapa was examined on apoptosis.

[4] = system: Dex-induced osteoporosis and skin atrophy; experiment: Glucocorticoid-induced osteoporosis (GIOP) and skin atrophy model; type: in vivo, BALB/c female mice; conditions: for RANKL/OPG ratio: 5-week treatment, Dex 10 mg/kg, LY294002 20 mg/kg or Rapa 5 mg/kg 6 h prior to Dex; for expression of Col1a1 and Col2a1 in bone: Dex chronic treatment, LY294002 or Rapa 6 h prior to Dex
Experimental: Glucocorticoid-induced osteoporosis (GIOP). GIOP was induced as described (18) by i.p. injection of Dex (10 mg/kg) in 12 weeks old BALB/c female mice (“Stolbovaya”, Moscow region, Russia) every 48 h for 5 weeks. 6 h prior to Dex, animals were treated i.p. with LY294002 (20 mg/kg), Rapamycin (5 mg/kg) of vehicle (30% PEG3350, 4% DMSO, 5% Tween-20 in PBS). Body weight was recorded twice a week.
(§7) Histological analysis and immunostaining. Xenograft and skin samples were fixed in formaldehyde, embedded in paraffin, sections were stained with hematoxylin and eosin. The bone samples after formaldehyde fixation were decalcinated in decalcination buffer (0.5 M EDTA, 0.7 mM NaOH, pH=7.0) for 14 days, then washed with PBS twice and further processed according to standard histology protocol. Ki67 and Caspase 3 were detected by immunostaining with antibodies to Ki-67 and Caspase-3 (Cell Signaling, San Jose, CA).
(§8) Morphometric analysis. Quantification of the epidermal width, dermal adipose thickness, bone thickness and cellularity of xenograft tissue was performed in sections stained with hematoxylin and eosin. At least 5 individual fields per slide of each individual sample/treatment (at least 50 images/treatment group) were analyzed using Axioplan2 microscope software (Carl Zeiss). The epidermal, dermal adipose, or bone thickness and cell density in treated animals is presented as % to control animals.
To test whether REDD1 inhibitors protect against systemic atrophic effects of Gcs, a model of Gcs-induced osteoporosis in Balb/c female mice was used (18) to assess atrophy in both bone and skin induced by high-dose i.p. Dex injections (10 mg/kg) every 48 h for 5 weeks. LY294002 (20 mg/kg), Rapa (5 mg/kg) or vehicle were injected 6 h prior animal treatment with Dex.

REDD1 [5] = experiment: REDD1 mRNA/protein expression (Q-PCR, Western blot) in CEM and Granta cells; type: cell-based, human
Experimental: as §1
Western blot analysis. Western blot analysis was performed (Ref 10; incorporated by reference in its entirety). The following antibodies were used: GR (H-300) (Santa Cruz Biotechnology, Dallas, TX), phospho-GR (Ser211), phospho-4E-BP1 (Thr37/46), phospho-Akt (Ser473), Akt, 4E-BP1, cleaved and full-length PARP, GAPDH, HDAC1 (Cell Signaling, San Jose, CA), REDD1 (Proteintech Group, Rosemont, IL).
RNA extraction and Q-PCR. Total RNA isolation, reverse transcription and Q-PCR were performed (Ref 10; incorporated by reference in its entirety). Primers were designed with NCBI Primer-BLAST (Table 1). Results were normalized to the expression of the housekeeping RPL27 gene.
The optimal regimen of cell treatment: pre-treatment with REDD1 inhibitors for 6 h followed by Dex treatment for 24 h was chosen (Ref. 12,13; incorporated by reference in their entireties).

Granta cells [6] = experiment: Apoptosis induction (PI staining sub-G1, PARP cleavage) in Granta cells; type: cell-based, human; conditions: used alone
Experimental: as §4, §5, §6

Granta xenografts = experiment: Granta lymphoma xenograft tumor growth study; type: in vivo, nu/nu mice
Experimental: Xenograft tumor growth study. 10 million Granta cells in 200 ul BD Matrigel Matrix were subcutaneously injected into the right flank of 7 weeks old female nu/nu mice (Taconic). Animals were randomized and treated every 48 h with LY294002 (20 mg/kg), Rapamycin (5 mg/kg) of vehicle (30% PEG3350, 4% DMSO, 5% Tween 20 in PBS) followed by Dex (1 mg/kg) of vehicle (5% DMSO in PBS) 6 h later. Body weight was recorded twice a week. Tumor size was measured twice a week by digital calipers, drug interaction mode was calculated based on combination index method (Refs. 16,17; incorporated by reference in their entireties). Combination index (CI) of Dex+Rapa/LY294002 was calculated as ratio (observed fraction value of combination group)/(expected fraction value of combination group). The observed fractions were calculated as ratio (mean value of experiment)/(mean value of control), and the expected fractions values of combination effect between combined groups and single drug groups were calculated as expected fraction=(mean observed fraction of Dex)×(mean observed fraction of Rapa/LY294002). CI<1, CI=1 and CI>1 indicates a synergy, additive effect and antagonism, respectively.
as §7, §8
Animals were randomized to different treatment groups after tumor volume reached 50 mm3. All compounds were delivered via i.p. injections of LY29400 (20 mg/kg), Rapa (5 mg/kg) or vehicle in the morning followed by Dex treatment (1 mg/kg) or vehicle 6 h later following the optimal regimens for REDD1 inhibition developed in vitro (2,13). All treatment regiments were only minimally toxic according to the steady increase in body weight monitored twice weekly (FIG. 11). Tumor volume was measured also twice a week (FIG. 12).

REDD1 [7] = experiment: REDD1 expression in differentiated MC3T3 murine osteocytes; type: cell-based; conditions: Rapamycin 1 uM 6 hrs, then Dexamethasone 24 h; Western blot and Q-PCR
GR = experiment: GRE.Luciferase reporter assay (GR transactivation) in CEM and Granta cells; type: cell-based, human
Experimental: Luciferase assay. GRE.Luc, NF-κB.Luc and control mCMV.Luc reporter cells were generated (Ref. 13; incorporated by reference in its entirety) using viral stocks obtained from Northwestern University SDRC DNA/RNA delivery Core. Luciferase activity was measured (Ref. 10; incorporated by reference in its entirety).
REDD1 is a GR target gene (Refs. 10,21; incorporated by reference in their entireties). To assess whether REDD1 inhibitors could modify GR function, LY294002, WM and AZD8055 effect on GR TA and TR was evaluated using CEM and Granta cells transduced with GRE.Luc and NF-kB.Luc reporters. […] Luciferase activity in both cell lines (FIG. 2A, C). […] Attenuation of GR TA was further confirmed by Q-PCR analysis of known GR-target genes including GR chaperone FKBP51 (Refs. 12,14; incorporated by reference in their entireties), mediator of Gcs anti-inflammatory effects GILZ (22,23), transcriptional activator KLF9 (24) and inhibitor of cytokine production MKP-1 (25) (FIG. 2B, D and FIG. 7A, B).

[8] = in combination with Dex 1 mg/kg, p<0.05
[9] = Dex 10 mg/kg i.p. every 48 h, 5 weeks, LY294002 20 mg/kg or Rapa 5 mg/kg 6 h prior

SMILES	decrease of Granta survival (Granta cells [1])	decrease of CEM survival (CEM cells [2])	apoptosis (sub-G1-phase cell population), used alone, CEM cells (CEM cells [3])	RANKL/OPG ratio [4]	expression of Col1a1 and Col2a1 in bone [4]	apoptosis (sub-G1-phase cell population), used alone, Granta cells (Granta cells [6])	type of interaction with Dex (isobologram analysis), Granta cells (Granta cells [1])	type of interaction with Dex (isobologram analysis), CEM cells (CEM cells [2])	further results
COc1ccc(-c2ccc3c(N4CCOC[C@@H]4C)nc(N4CCOC[C@@H]4C)nc3n2)cc1CO [AZD8055]	70-90%	70-90%	–	–	–	–	–	–	–
C[C@@H]1C[C@H]2[C@@H]3CCC4=CC(=O)C=C[C@]4(C)[C@@]3(F)[C@@H](O)C[C@]2(C)[C@@]1(O)C(=O)CO [Dexamethasone]	–	–	stimulated apoptosis	significantly increased	decreased	stimulated apoptosis	–	–	REDD1 expression at mRNA/protein levels, Dex alone (REDD1 [5]; Granta and CEM cells, Dex 24 h): significantly induced REDD1 expression
CO[C@H]1C[C@@H]2CC[C@@H](C)[C@@](O)(O2)C(=O)C(=O)N2CCCC[C@H]2C(=O)O[C@H]([C@H](C)C[C@@H]2CC[C@@H](O)[C@H](OC)C2)CC(=O)[C@H](C)/C=C(\C)[C@@H](O)[C@@H](OC)C(=O)[C@H](C)C[C@H](C)/C=C/C=C/C=C/1C [Rapamycin]	–	–	stimulated apoptosis	significant decrease of RANKL/OPG ratio towards control level	restored	stimulated apoptosis	Synergy	Synergy	day from which tumor growth inhibition was statistically significant relative to control, individual treatment (Granta xenografts; Rapa 5 mg/kg or LY294002 20 mg/kg individually): ≥ 12 days; apoptotic (caspase 3-positive) cells in xenografts (Granta xenografts; immunostaining, with Dex): statistically significant for increased apotosis induction; day from which tumor growth inhibition was statistically significant relative to Dex-treated group, in combination with Dex (Granta xenografts; [8]): ≥ 21 days; day from which tumor growth inhibition was statistically significant relative to control, in combination with Dex (Granta xenografts; [8]): ≥ 12 days; OPG expression in bone [4, 9]: up-regulation of OPG expression; RANKL expression in bone [4, 9]: down-regulation of RANKL expression; protection of skin from hypoplastic effects of Dex ([4]; LY294002 20 mg/kg, Rapamycin 5 mg/kg, 6 h prior to Dex): partially protected skin; induction of REDD1 by Dexamethasone in murine osteocytes (REDD1 [7]): Prevents Induction of Atrophogene REDD1
COC[C@H]1OC(=O)c2coc3c2[C@@]1(C)C1=C(C3=O)[C@@H]2CCC(=O)[C@@]2(C)C[C@H]1OC(C)=O [Wortmannin]	70-90%	70-90%	stimulated apoptosis	–	–	stimulated apoptosis	mostly additive	mostly additive	Dex-induced GRE.Luciferase activity (GR; 6 h pre-treatment, Dex 1 uM 24 h): inhibited Dex-induced GRE. Luciferase activity; basal GR activity (GRE.Luciferase) (GR; applied individually): negatively affected basal GR activity; effect on REDD1 induction by Dex (REDD1 [5]; CEM and Granta cells, 6 h pre-treatment (LY294002 50 uM, WM 10 uM, AZD8055 1 uM), then Dex 24 h): prevented REDD1 induction; basal REDD1 expression (REDD1 [5]; inhibitor without Dex, mRNA in CEM cells, protein more pronounced in Granta cells): blocked basal and glucocorticoid-induced REDD1 expression
